The assay deals with T1, Matrix Gla protein (human (endogenous in bone marrow MSCs)) (UniProt P08493).
T1 sequence: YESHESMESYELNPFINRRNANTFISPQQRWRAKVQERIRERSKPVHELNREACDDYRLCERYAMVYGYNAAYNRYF
The assay is described as follows: co-IP; MSCs lysates in IP lysis buffer with 1% PMSF and phosphatase inhibitor; incubated overnight at 4 °C with antibodies against APPL1, MGP, BMP2 or IgG controls; Dynabeads Protein G, 3 h at 4 °C; Western blot.

Results are given in words; binding and its absence hold for the method and conditions named. Binding seen in cells or lysates may run through a third protein.

B1: Adaptor protein, phosphotyrosine interacting with PH domain and leucine zipper 1 (protein, UniProt Q9UKG1 1-709)
chain: MPGIDKLPIEETLEDSPQTRSLLGVFEEDATAISNYMNQLYQAMHRIYDAQNELSAATHLTSKLLKEYEKQRFPLGGDDEVMSSTLQQFSKVIDELSSCHAVLSTQLADAMMFPITQFKERDLKEILTLKEVFQIASNDHDAAINRYSRLSKKRENDKVKYEVTEDVYTSRKKQHQTMMHYFCALNTLQYKKKIALLEPLLGYMQAQISFFKMGSENLNEQLEEFLANIGTSVQNVRREMDSDIETMQQTIEDLEVASDPLYVPDPDPTKFPVNRNLTRKAGYLNARNKTGLVSSTWDRQFYFTQGGNLMSQARGDVAGGLAMDIDNCSVMAVDCEDRRYCFQITSFDGKKSSILQAESKKDHEEWICTINNISKQIYLSENPEETAARVNQSALEAVTPSPSFQQRHESLRPAAGQSRPPTARTSSSGSLGSESTNLAALSLDSLVAPDTPIQFDIISPVCEDQPGQAKAFGQGGRRTNPFGESGGSTKSETEDSILHQLFIVRFLGSMEVKSDDHPDVVYETMRQILAARAIHNIFRMTESHLLVTCDCLKLIDPQTQVTRLTFPLPCVVLYATHQENKRLFGFVLRTSSGRSESNLSSVCYIFESNNEGEKICDSVGLAKQIALHAELDRRASEKQKEIERVKEKQQKELNKQKQIEKDLEEQSRLIAASSRPNQASSEGQFVVLSSSQSEESDLGEGGKKRESEA
Take B1: the binding result is listed as “no binding”.

The record behind these values is PMC10318529.
